# According to patent US7595183B2, “Cathepsins L-like cysteine protease derived from northern shrimp (Pandalus eous)” (Nichirei Corporation, priority 2002, dated 2009):
# For at least one compound, name, drawing or mass did not settle the structure. Numbered stars: 1 amine (or outer) side, 2 acyl side, 3 side chain; on linkers, the order of the positions; unused ones are H or OH. Peptide text beside a SMILES is read from it. CO = O=C([*:1])[*:2]
# Test system: northern shrimp cathepsin L1
# Assay: Effects of inhibitors on northern shrimp cathepsin L1, residual activity with Z-Phe-Arg-MCA
# Type: biochemical, northern shrimp (Pandalus eous)
# Details: for Residual activity (%): enzyme 1 nM, Z-Phe-Arg-MCA 100 μM
# Protocol: Enzymatic activity was assayed at 25° C. using intramolecularly quenched MCA (methyl coumarylamide) substrates in a buffer containing 100 mM sodium acetate, pH 6.0, 100 mM NaCl, 2 mM DTT, 2 mM EDTA and 0.01% Brij-35. The substrate solution was prepared in dimethyl sulfoxide at a concentration of 20 mM. Hydrolysis was initiated by adding the enzyme diluted with the same buffer. Enzymatic activity was determined by measuring fluorescence intensity of the released 7-amino-4-methylcoumarin (AMC) at an excitation wavelength of 380 nm and an emission wavelength of 460 nm.
# Enzyme solution was pretreated with any one of inhibitors E64 (L-trans-epoxysuccinyl-leucyl-agmatine), Z-Phe-Phe-CHN2, Z-Phe-Tyr(t-Bu)-CHN2, leupeptin, antipain, PMSF (phenylmethylsulfonyl fluoride), and 1,10-phenanthroline in a buffer (containing 100 mM sodium acetate, 2 mM DTT, 2 mM EDTA, and 0.05% Triton X-100). Residual enzymatic activity was then measured with fluorescent substrate Z-Phe-Arg-MCA. The final concentrations of the enzymes and the substrate were 1 nM and 100 μM, respectively. The residual enzymatic activity was measured with the method described above.
smiles,measurement,setting,value
"CC(C)[C@H](NC(=O)[C@H](CCCNC(=N)N)NC(=O)N[C@@H](Cc1ccccc1)C(=O)O)C(=O)N[C@H](C=O)CCCNC(=N)N [Antipain, antipain] ({Phe-CO}-Arg-Val-Arg-aldehyde)",Inhibition of northern shrimp cathepsin L1 (in words),,strongly inhibited
same,Residual activity (%),inhibitor 1 μM,0%
same,Residual activity (%),inhibitor 10 μM,0%
